Test results from article PMC8291974.
Results are given in words; binding and its absence hold for the method and conditions named. Binding seen in cells or lysates may run through a third protein. Binding can be weak; no strength is given. Where a sequence is shown, tags or fusion partners need not be part of it.

Protein sequences, listed by entry. Tags and fused reporters are not part of them. Lines headed by an entry give the natural chain unless they say otherwise; changes in a name come on top.
UniProt E9Q777: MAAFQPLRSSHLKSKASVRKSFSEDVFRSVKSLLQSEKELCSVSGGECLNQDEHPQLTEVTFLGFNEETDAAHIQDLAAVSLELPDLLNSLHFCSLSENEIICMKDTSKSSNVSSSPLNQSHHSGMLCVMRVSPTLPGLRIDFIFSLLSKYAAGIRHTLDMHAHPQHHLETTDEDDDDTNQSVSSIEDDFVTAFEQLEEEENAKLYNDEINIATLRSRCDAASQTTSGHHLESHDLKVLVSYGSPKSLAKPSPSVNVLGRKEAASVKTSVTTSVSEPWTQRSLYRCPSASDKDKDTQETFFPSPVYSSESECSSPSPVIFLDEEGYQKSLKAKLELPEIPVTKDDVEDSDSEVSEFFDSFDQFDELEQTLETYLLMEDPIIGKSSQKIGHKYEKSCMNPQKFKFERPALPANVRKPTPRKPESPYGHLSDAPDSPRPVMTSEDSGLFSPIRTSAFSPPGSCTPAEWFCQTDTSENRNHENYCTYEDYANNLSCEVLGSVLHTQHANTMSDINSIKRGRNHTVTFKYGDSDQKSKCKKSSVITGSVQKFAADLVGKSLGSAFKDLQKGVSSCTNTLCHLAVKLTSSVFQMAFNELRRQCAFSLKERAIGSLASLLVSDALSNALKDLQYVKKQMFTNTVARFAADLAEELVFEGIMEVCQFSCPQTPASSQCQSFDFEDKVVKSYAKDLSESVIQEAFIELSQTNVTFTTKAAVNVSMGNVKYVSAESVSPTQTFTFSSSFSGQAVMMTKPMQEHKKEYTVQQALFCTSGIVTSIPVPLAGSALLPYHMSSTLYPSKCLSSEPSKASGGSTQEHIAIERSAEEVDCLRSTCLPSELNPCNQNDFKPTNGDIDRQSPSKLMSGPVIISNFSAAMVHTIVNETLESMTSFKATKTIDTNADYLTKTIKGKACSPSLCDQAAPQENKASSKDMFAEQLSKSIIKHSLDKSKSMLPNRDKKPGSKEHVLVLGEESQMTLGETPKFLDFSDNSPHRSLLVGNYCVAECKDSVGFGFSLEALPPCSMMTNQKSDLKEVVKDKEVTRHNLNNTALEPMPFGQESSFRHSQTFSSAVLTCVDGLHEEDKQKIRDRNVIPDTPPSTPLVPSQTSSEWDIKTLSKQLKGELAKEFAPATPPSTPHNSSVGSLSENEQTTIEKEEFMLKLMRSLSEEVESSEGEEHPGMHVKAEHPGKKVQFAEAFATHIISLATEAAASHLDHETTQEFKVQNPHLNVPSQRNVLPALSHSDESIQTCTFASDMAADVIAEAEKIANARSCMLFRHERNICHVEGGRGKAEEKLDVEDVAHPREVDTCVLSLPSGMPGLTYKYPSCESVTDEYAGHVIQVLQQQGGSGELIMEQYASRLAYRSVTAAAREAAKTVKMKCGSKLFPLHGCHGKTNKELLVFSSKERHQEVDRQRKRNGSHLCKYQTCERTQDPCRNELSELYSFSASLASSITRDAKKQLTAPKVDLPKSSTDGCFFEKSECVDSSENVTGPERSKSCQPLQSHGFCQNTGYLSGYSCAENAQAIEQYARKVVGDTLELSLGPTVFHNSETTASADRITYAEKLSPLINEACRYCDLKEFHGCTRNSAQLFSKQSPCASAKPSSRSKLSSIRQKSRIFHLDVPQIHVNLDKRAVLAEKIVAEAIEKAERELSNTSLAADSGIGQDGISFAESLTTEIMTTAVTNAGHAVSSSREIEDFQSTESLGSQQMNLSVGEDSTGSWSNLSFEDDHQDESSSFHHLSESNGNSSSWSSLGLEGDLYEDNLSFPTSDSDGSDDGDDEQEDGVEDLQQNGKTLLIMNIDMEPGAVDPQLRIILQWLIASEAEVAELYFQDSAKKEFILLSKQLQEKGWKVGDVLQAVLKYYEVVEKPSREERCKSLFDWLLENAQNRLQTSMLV

Target: T1, histone deacetylase 6 (HDAC6), endogenous in mIMCD3 cells (mouse (endogenous in mIMCD3)) (UniProt Q9Z2V5)
T1 sequence: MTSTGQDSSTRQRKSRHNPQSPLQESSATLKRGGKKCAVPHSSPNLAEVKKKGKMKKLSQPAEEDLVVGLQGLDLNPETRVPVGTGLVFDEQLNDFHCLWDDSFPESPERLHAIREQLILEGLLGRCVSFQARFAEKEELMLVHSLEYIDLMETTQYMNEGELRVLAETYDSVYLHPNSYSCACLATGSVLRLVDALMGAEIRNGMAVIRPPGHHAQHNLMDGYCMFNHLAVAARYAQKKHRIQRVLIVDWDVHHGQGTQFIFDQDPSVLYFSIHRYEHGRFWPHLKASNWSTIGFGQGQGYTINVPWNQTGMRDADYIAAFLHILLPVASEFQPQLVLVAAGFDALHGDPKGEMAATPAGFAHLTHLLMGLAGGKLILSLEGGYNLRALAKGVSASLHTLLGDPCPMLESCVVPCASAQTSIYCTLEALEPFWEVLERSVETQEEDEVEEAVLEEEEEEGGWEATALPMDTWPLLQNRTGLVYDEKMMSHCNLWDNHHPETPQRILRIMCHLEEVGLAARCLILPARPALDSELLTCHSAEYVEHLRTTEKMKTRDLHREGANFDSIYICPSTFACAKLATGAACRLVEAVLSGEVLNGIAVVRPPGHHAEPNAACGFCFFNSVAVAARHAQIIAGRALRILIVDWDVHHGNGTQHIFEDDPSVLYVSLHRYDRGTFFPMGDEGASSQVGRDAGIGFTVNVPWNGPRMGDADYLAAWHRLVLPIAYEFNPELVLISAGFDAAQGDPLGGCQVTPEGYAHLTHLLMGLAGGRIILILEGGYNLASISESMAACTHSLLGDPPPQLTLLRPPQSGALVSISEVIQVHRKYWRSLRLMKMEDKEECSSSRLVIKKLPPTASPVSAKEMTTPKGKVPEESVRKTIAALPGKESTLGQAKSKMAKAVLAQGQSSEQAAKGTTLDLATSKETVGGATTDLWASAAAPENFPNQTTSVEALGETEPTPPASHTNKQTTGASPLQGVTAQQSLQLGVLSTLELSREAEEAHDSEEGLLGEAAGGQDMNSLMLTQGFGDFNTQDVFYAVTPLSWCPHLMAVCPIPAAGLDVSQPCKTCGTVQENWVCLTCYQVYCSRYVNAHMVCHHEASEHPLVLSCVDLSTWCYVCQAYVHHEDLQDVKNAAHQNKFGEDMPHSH
Experiment: co-IP; immunoprecipitation of HDAC6 from wild-type or AKAP220-ΔPP1 mIMCD3 cell lysates, immunoblot for AKAP220

binding: binds
Substance: AKAP220-ΔPP1 (knock-in mutant, KVQF motif replaced by TATA) (from UniProt E9Q777)
